One molecule from article PMC12865461 can be followed below.

This assay deals with T1, yeast Smc2 residues 396-792 (yeast) (UniProt P38989).
T1 sequence: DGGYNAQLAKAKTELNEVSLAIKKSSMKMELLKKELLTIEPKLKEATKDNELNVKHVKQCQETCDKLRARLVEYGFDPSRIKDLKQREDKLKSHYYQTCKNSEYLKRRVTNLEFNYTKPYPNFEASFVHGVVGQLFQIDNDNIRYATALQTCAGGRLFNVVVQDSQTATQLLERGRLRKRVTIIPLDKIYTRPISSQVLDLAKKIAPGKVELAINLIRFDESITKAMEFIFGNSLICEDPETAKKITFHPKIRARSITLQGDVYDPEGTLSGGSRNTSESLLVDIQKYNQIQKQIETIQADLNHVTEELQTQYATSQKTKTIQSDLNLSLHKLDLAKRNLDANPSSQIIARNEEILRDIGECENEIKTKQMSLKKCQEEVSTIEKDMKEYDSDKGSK
As to the kind of experiment: co-purification (Ni affinity, anion exchange, SEC); His6-tagged Smc2 (396-792) and untagged Smc4 (555-951) co-expressed in bacteria and purified together by Ni-Sepharose 6FF, Resource Q and Superdex 200 GL 10/300.

These are yes or no findings as the source states them, for the method shown. Some results given as binding are weak or reduced against the parent protein; the word gives no strength.

B1: yeast Smc4 residues 555-951 (domain or fragment, UniProt Q12267 555-951)
chain: EKELEPWDLQLQEKESQIQLAESELSLLEETQAKLKKNVETLEEKILAKKTHKQELQDLILDLKKKLNSLKDERSQGEKNFTSAHLKLKEMQKVLNAHRQRAMEARSSLSKAQNKSKVLTALSRLQKSGRINGFHGRLGDLGVIDDSFDVAISTACPRLDDVVVDTVECAQHCIDYLRKNKLGYARFILLDRLRQFNLQPISTPENVPRLFDLVKPKNPKFSNAFYSVLRDTLVAQNLKQANNVAYGKKRFRVVTVDGKLIDISGTMSGGGNHVAKGLMKLGTNQSDKVDDYTPEEVDKIERELSERENNFRVASDTVHEMEEELKKLRDHEPDLESQISKAEMEADSLASELTLAEQQVKEAEMAYVKAVSDKAQLNVVMKNLERLRGEYNDLQSE
In the case of B1, the binding entry is reported as “binds”.
